Out of some 340,000 compounds screened, about 170 (0.05%) were called active. The inconclusive results got no clear call from the source; some entries with a clear call stand among them for comparison. Calls follow the shape of the dose curve; as a rule, active = well fitted inhibition curve with a large enough effect in the signal ratio, with a control signal flat (not every such curve was filed as active); inconclusive = small, poorly fitted or top-dose-only effect, or effect the other way, or a change in a side signal; inactive = flat fitted curve, though single readings scatter; the % refers to the signal ratio. Potencies beside an inconclusive call are fits to weak or partial responses and may not hold up.
Experiment: qHTS Assay to Find Inhibitors of Chronic Active B-Cell Receptor Signaling;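 as to activity change, negative = inhibition: plate controls were basal doxycycline-induced cells for no effect and cells given 10 µM MG132 for full effect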
Conditions: ABC-DLBCL IkBa-CBG/CBR reporter, luminescence ratio (green luciferase fused to IkBa over red control in TMD8 lymphoma cells), 4 h; activity change, negative = inhibition: at 46.1 µM (top of the series)
Method in brief: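 Cell line TMD8 (human ABC DLBCL), stably expressing tet-inducible CBG68-IkBa fusion and CBR; IMDM/0.5% FBS; cpd up to 46 uM; dox induction, 4 h, 37C/5% CO2; dual luminescence; green/red ratio; MG132 control.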
Potency is read from the fitted curve at half-maximal effect.

| SMILES | activity change, negative = inhibition | Potency |
| --- | --- | --- |
| CN1CCN(C(=O)CCc2nc3ccccc3n2-c2ccccc2)CC1 | inconclusive: 4.22% |  |
| CC(C)N(CCNCC(O)COc1ccc(C(C)(C)c2ccccc2)cc1)C(C)C (configuration not stated) | inconclusive: -16.6% |  |
| CCN1CCN(c2nc3ccccc3nc2C(C#N)C(=O)OCc2ccccc2)CC1 (configuration not stated) | inconclusive: 7.38% |  |
| O=S1(=O)N=C(N/N=C/c2ccccn2)c2ccccc21 |  | inconclusive: 20.6 µM [falling, partial curve] |
| CCC(C)[C@H](N)c1cn([C@@H](Cc2cc3ccccc3[nH]2)C(=O)N2CCNCC2)nn1 (some centres not stated) | inconclusive: 11.6% |  |
| CC(OC(=O)c1cc(=O)[nH]c2ccccc12)C(=O)N1C(C)CCCC1C (configuration not stated) | inconclusive: 0.728% |  |
| CCC1=NN(C(=O)COc2ccccc2)C(O)(c2ccc(Br)cc2)C1 (configuration not stated) | inconclusive: 13.4% |  |
| COc1ccc(N(C(=O)c2snc(C(N)=O)c2N)C(C(=O)NCc2ccccc2)c2ccc(O)cc2)cc1OC (configuration not stated) | inactive: -10.8% |  |
| c1ccc(-n2c(-c3ccncc3)nnc2N2CCOCC2)cc1 | inconclusive: 4.61% |  |
| CCc1cccc(C)c1NC(=O)COC(=O)CNS(=O)(=O)/C=C/c1ccccc1 | inactive: -2.56% |  |
| CN1C=CC=C/C1=C1\SC(=S)N(C2CCCCC2)C1=O | inconclusive: 5.24% |  |
| O=S(=O)(c1ccccc1)N(F)S(=O)(=O)c1ccccc1 | inconclusive: -3.65% |  |
| CSc1ncc(CN2CCc3c([nH]c4ccccc34)C2c2cccc(O)c2)cn1 (configuration not stated) | inconclusive: 20.1% |  |
| c1csc(-c2nc3ccccc3[nH]2)c1 | inconclusive: 15.8% |  |
| Cn1c(C(=O)c2ccncc2)cc2ccccc21 | inconclusive: -15.9% |  |
| CCOc1ccc(S(=O)(=O)Nc2cccc(C(=O)N3CCN(c4cccc(OC)c4)CC3)c2)cc1 | inconclusive: -18.1% |  |
| CN1CC(=O)N(CC(=O)Nc2ccc3c(c2)CCC3)C1=O | inconclusive: -18.2% |  |
| COc1ccc(NS(=O)(=O)c2cc(NC(=O)c3ccc(F)cc3)ccc2OC)cc1 | inconclusive: 9.76% |  |
| O=C(O)c1cc(-c2cccs2)nn1-c1cccc(Cl)c1 | inactive: 14% |  |
| O=c1c2cc(N3CCOCC3)ccc2[nH]c(=S)n1CCCN1CCCCC1 | inconclusive: 215% |  |
| COc1ccc(N2CCN(C(=O)CCc3ccccc3OC)CC2)cc1 | inactive: 3.99% |  |

| SMILES | activity change, negative = inhibition | Potency |
| --- | --- | --- |
| CCOC(=O)c1c(NC(=O)C2c3ccccc3Oc3ccccc32)sc(C(N)=O)c1C | inconclusive: 11.3% |  |
| COc1ccc(Nc2nc(C)nc3c2oc2ccccc23)c(OC)c1 | inactive: 0.325% |  |
| O=C(c1cc(-c2cccc(Cl)c2)on1)N1CCN(c2ccccc2)CC1 |  | inconclusive: 0.631 µM [falling, partial curve, poor fit] |
| COc1ccc(Br)cc1/C=N/n1c(COc2ccccc2)n[nH]c1=S | inconclusive: 7.57% |  |
| CCCCC(=O)Nc1ccc(NC(=O)c2cnccn2)cn1 |  | inconclusive: 10 µM [falling, partial curve, poor fit] |
| O=C(/C=C/c1ccc(Cl)c([N+](=O)[O-])c1)Nc1cccc(NC(=O)c2ccco2)c1 | inconclusive: 14.9% |  |
| Cc1cc(C(=O)NN)n[nH]1 |  | inconclusive: 22.4 µM [falling, single point] |
| CCCCOC(=O)/C=C/c1c(C)[nH]c(=O)[nH]c1=O | inconclusive: 1.88% |  |
| CC(=O)c1ccc(N(C(=O)c2csnn2)C(C(=O)NC2CCCC2)c2ccccc2)cc1 (configuration not stated) | inconclusive: -0.0336% |  |
| Cc1ccccc1C(=O)NC(=S)Nc1ccc(N2CCOCC2)cc1 |  | inconclusive: 11.2 µM [falling, partial curve] |
| CN(C)CCCCNCCCNC(=O)/C=N\O | inconclusive: -19.4% |  |
| C=C1CCC2C(C)(C)[C@@H](O)CC[C@@]2(C)[C@@H]1COc1ccc2ccc(=O)oc2c1 (some centres not stated) | inconclusive: -15.8% |  |
| COc1ccc(CN(C)C(=O)c2ccc(NS(=O)(=O)c3ccc4[nH]c(=O)[nH]c4c3)cc2)c(OC)c1OC | inconclusive: -1.32% |  |
| COC(=O)c1ccc(/C=N/NC(=O)C(=O)N2CCCCCC2)cc1 | inconclusive: -10.6% |  |
| Cc1ccc(S(=O)(=O)C(CNC(=O)c2ccc(F)c(F)c2)c2ccco2)cc1 (configuration not stated) | inactive: 0.576% |  |
| O=c1c2c3nc4ccccc4nc3n(/N=C/c3ccco3)c2ncn1CCC1=CCCCC1 | inconclusive: 13.6% |  |
| CCC(C)[C@H]1COCCS(=O)(=O)N1Cc1ccccc1 (some centres not stated) | inactive: -13.7% |  |
| C=CCN(c1ccccc1)S(=O)(=O)c1ccc2c(c1)NC(=O)C(C)S2 (configuration not stated) | inconclusive: 7.47% |  |
| COc1ccc(C2CC(C(F)(F)F)n3ncc(C(=O)NCc4cccnc4)c3N2)cc1OC (configuration not stated) | inconclusive: -27.1% |  |
| CCCCCCCCCCCC(=O)c1c(O)cccc1O |  | inconclusive: 12.6 µM [rising, partial curve, poor fit] |
| CCC(=O)C1=C(c2ccc(Cl)cc2)N(C(=O)CC)n2c(C)nnc2S1 | inconclusive: -23.7% |  |

| SMILES | activity change, negative = inhibition | Potency |
| --- | --- | --- |
| O=C(NC12CC3CC(CC(C3)C1)C2)N1CCN(S(=O)(=O)c2ccc(Cl)cc2)CC1 | inactive: 1.26% |  |
| COc1ccc(/C=C/C(=O)OCC(=O)N2CC(=O)Nc3ccccc32)cc1 | inconclusive: 5.48% |  |
| Cc1ccc(NC(=S)NC(=O)C2CCCC2)cc1C | inconclusive: -8.59% |  |
| CCC(=O)N1CCc2cc(S(=O)(=O)NC(Cc3ccccc3)C(=O)Nc3nccs3)ccc21 (configuration not stated) | inconclusive: 0.556% |  |
| O=C(C1=C[C@H](C2CCCCC2)C[C@H](OCc2ccc(CO)cc2)O1)N1CCOCC1 | inactive: -15.9% |  |
| COCCN1CCn2c(nc3cc(NC(C)=O)ccc32)C1 | inconclusive: 3.79% |  |
| Fc1ccc2c(c1)C(c1ccc(N3CCOCC3)cc1)=NNC(c1cccs1)=N2 |  | inconclusive: 9.2 µM [falling, partial curve, poor fit] |
| Cc1cccc(Nc2ncnc(N)c2[N+](=O)[O-])n1 | inactive: -1.91% |  |
| Cc1cc(C(F)(F)F)n2ncc(-c3ccccc3)c2n1 | inconclusive: 9.93% |  |
| Cc1cc(SCC(=O)c2cc(C)n(C)c2C)nc2ccccc12 | inconclusive: -11.4% |  |
| CCC(C)c1ccc(NC(=O)C2CCCN(c3ncccn3)C2)cc1 (configuration not stated) | inactive: 4.26% |  |
| NC(=O)NC(CC(=O)NNC(=O)c1ccccn1)c1ccccc1Cl (configuration not stated) | inconclusive: 3.4% |  |
| COc1ccc(C(=O)Nc2ccc3c(c2)OCCO3)cc1 |  | inconclusive: 18.4 µM [falling, partial curve] |
| CN(C)CCCNS(=O)(=O)c1ccc(NC2CCCCCC2)c([N+](=O)[O-])c1 | inactive: -10.8% |  |
| COc1cccc(C2/C(=C(/O)c3ccc4c(c3)OCO4)C(=O)C(=O)N2CCN2CCOCC2)c1 (configuration not stated) | inconclusive: -3.18% |  |
| COc1ccc(CN2CN(C3CCCC3)CSC2=S)cc1 |  | inconclusive: 31.6 µM [falling, partial curve, poor fit] |
| Cc1cccnc1NC(=S)NC(=O)/C=C/c1ccco1 |  | inconclusive: 23.1 µM [falling, partial curve] |
| CCOc1ccc(NC(=O)c2cccc3c2C(=O)N(CC2CCCO2)C3)cc1 (configuration not stated) | inconclusive: 9.83% |  |
| CCC(C)[C@H]1COCCS(=O)(=O)N1Cc1ccc(Br)cc1 (some centres not stated) | inactive: 0.621% |  |
| CCOC(=O)/C(C#N)=C/Nc1ccsc1C(C)=O | inconclusive: 4.21% |  |
| Cc1nc2ccccn2c1C(=O)NN | inconclusive: 9.7% |  |

In the list so far, these have a thiophene ring, fused or not.

| SMILES | activity change, negative = inhibition | Potency |
| --- | --- | --- |
| c1csc(-c2nc3ccccc3[nH]2)c1 | inconclusive: 15.8% |  |
| O=C(O)c1cc(-c2cccs2)nn1-c1cccc(Cl)c1 | inactive: 14% |  |
| CCOC(=O)c1c(NC(=O)C2c3ccccc3Oc3ccccc32)sc(C(N)=O)c1C | inconclusive: 11.3% |  |
| Fc1ccc2c(c1)C(c1ccc(N3CCOCC3)cc1)=NNC(c1cccs1)=N2 |  | inconclusive: 9.2 µM [falling, partial curve, poor fit] |
| CCOC(=O)/C(C#N)=C/Nc1ccsc1C(C)=O | inconclusive: 4.21% |  |

More compounds:

| SMILES | activity change, negative = inhibition | Potency |
| --- | --- | --- |
| CC(=O)N/C(=C\c1ccccc1)C(=O)OC(C)C(=O)c1ccccc1 (configuration not stated) | inconclusive: 8.77% |  |
| N/C(=N\N=C\c1cccc(O)c1)c1nonc1N |  | inconclusive: 20 µM [falling, single point] |
| Cc1ccc(CNC(=O)CC(C)CC2=NS(=O)(=O)c3ccccc3N2)cc1 (configuration not stated) | inconclusive: 52.8% |  |
| CC1(C)CC(=O)c2sc(NC(=O)c3ccccc3)nc2C1 |  | inconclusive: 3.55 µM [falling, partial curve, poor fit] |
| Cc1csc(N/N=C/c2ccccc2F)n1 | inactive: -4.18% |  |
| COC(=O)C1=C(C)NC(C)=C(C(=O)OCCN(C)Cc2ccccc2)C1c1cccc([N+](=O)[O-])c1 (configuration not stated) | inconclusive: 0.101% |  |
| CC(C)NC(=O)c1onc(CSc2ccccc2F)c1C(=O)O |  | inconclusive: 31.6 µM [rising, single point] |
| COc1ccc(N2CCN(C(=O)c3ccc(Cl)c(S(=O)(=O)N4CCCC4)c3)CC2)cc1 | inactive: 5.65% |  |
| N#CCC(=O)N/N=C/c1cn(Cc2ccc3ccccc3c2)c2ccccc12 | inconclusive: -0.437% |  |
| CCOC(=O)C1=C(C)Nc2ccccc2N=C1NC(=O)c1cc(C)on1 | inactive: 1.24% |  |
| COCc1ccc(CN2CCCC(C(=O)Nc3ccc(-c4cscn4)cc3)C2)o1 (configuration not stated) |  | inconclusive: 12.6 µM [falling, partial curve, poor fit] |
| COc1ccc(N2CCN(C(=O)c3ccc(C(C)(C)C)cc3)CC2)cc1 |  | inconclusive: 2.59 µM [falling, partial curve, poor fit] |
| COCC(=O)Nc1ccc(S(=O)(=O)Nc2cc(C)nc(C)n2)cc1 | inactive: -2.09% |  |
| O=C(NN=C1CCCCCC1)C(=O)Nc1cccc(Br)c1 | inconclusive: -19.9% |  |
| COc1cc(OC)cc(-c2oc3cccnc3c2C#CCCO)c1 |  | inconclusive: 11.2 µM [falling, partial curve] |
| C1=CC2c3ccccc3NC(c3ccncc3)C2C1 (configuration not stated) | inactive: 5.83% |  |
| Cc1nc2ncccn2c1-c1csc(Nc2ccc(N(C)C)cc2)n1 |  | inconclusive: 10 µM [falling, partial curve] |
| CCCCNc1ncnc2c1cnn2-c1ccccc1 |  | inconclusive: 35.5 µM [falling, single point] |
| COc1ccc(C(=O)N2CCCC(Nc3ccc(F)c(F)c3)C2)c(OC)n1 (configuration not stated) | inconclusive: -5.9% |  |
